Reference: PMC9456370
No constants are given. Whether binding was seen depends on the method and setting. In cells and extracts the contact can be indirect. These calls come from enrichment with a bait or labelling near it, and not all partners need be listed. Where a sequence is shown, tags or fusion partners need not be part of it.

T1: His6-tagged LapD protein (E. coli K-12) (UniProt P0ADW3)
T1 sequence: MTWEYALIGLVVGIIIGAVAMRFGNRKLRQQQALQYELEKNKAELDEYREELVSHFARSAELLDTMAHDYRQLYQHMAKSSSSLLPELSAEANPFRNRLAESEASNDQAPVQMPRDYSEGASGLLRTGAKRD


target: T1, His6-tagged LapD protein (E. coli K-12); assay: affinity purification with mass spectrometry; His6-LapD (pCA24N JW5539 in BW25113) from IM fraction solubilized with 2% octyl-β-D-glucoside, on nickel-nitrilotriacetic acid beads, eluted with 250 mM and 100 mM imidazole; co-eluting proteins resolved on 12% SDS-PAGE (Coomassie) and identified by MALDI-TOF

Binder | binding
FabY (enzyme, UniProt P0ADQ2 1-329) MSQLPGLSRETRESIAMYHLRVPQTEEELERYYQFRWEMLRKPLHQPKGSERDAWDAMAHHQMVVDEQGNLVAVGRLYINADNEASIRFMAVHPDVQDKGLGTLMAMTLESVARQEGVKRVTCSAREDAVEFFAKLGFVNQGEITTPTTTPIRHFLMIKPVATLDDILHRGDWCAQLQQAWYEHIPLSEKMGVRIQQYTGQKFITTMPETGNQNPHHTLFAGSLFSLATLTGWGLIWLMLRERHLGGTIILADAHIRYSKPISGKPHAVADLGALSGDLDRLARGRKARVQMQVEIFGDETPGAVFEGTYIVLPAKPFGPYEEGGNEEE | binds
LapB (protein, UniProt P0AB58 1-389) MLELLFLLLPVAAAYGWYMGRRSAQQNKQDEANRLSRDYVAGVNFLLSNQQDKAVDLFLDMLKEDTGTVEAHLTLGNLFRSRGEVDRAIRIHQTLMESASLTYEQRLLAIQQLGRDYMAAGLYDRAEDMFNQLTDETDFRIGALQQLLQIYQATSEWQKAIDVAERLVKLGKDKQRVEIAHFYCELALQHMASDDLDRAMTLLKKGAAADKNSARVSIMMGRVFMAKGEYAKAVESLQRVISQDRELVSETLEMLQTCYQQLGKTAEWAEFLQRAVEENTGADAELMLADIIEARDGSEAAQVYITRQLQRHPTMRVFHKLMDYHLNEAEEGRAKESLMVLRDMVGEKVRSKPRYRCQKCGFTAYTLYWHCPSCRAWSTIKPIRGLDGL | binds
LptB (protein, UniProt P0A9V1 1-241) MATLTAKNLAKAYKGRRVVEDVSLTVNSGEIVGLLGPNGAGKTTTFYMVVGIVPRDAGNIIIDDDDISLLPLHARARRGIGYLPQEASIFRRLSVYDNLMAVLQIRDDLSAEQREDRANELMEEFHIEHLRDSMGQSLSGGERRRVEIARALAANPKFILLDEPFAGVDPISVIDIKRIIEHLRDSGLGVLITDHNVRETLAVCERAYIVSQGHLIAHGTPTEILQDEHVKRVYLGEDFRL | binds
FabB (enzyme, UniProt P0A953 1-406) MKRAVITGLGIVSSIGNNQQEVLASLREGRSGITFSQELKDSGMRSHVWGNVKLDTTGLIDRKVVRFMSDASIYAFLSMEQAIADAGLSPEAYQNNPRVGLIAGSGGGSPRFQVFGADAMRGPRGLKAVGPYVVTKAMASGVSACLATPFKIHGVNYSISSACATSAHCIGNAVEQIQLGKQDIVFAGGGEELCWEMACEFDAMGALSTKYNDTPEKASRTYDAHRDGFVIAGGGGMVVVEELEHALARGAHIYAEIVGYGATSDGADMVAPSGEGAVRCMKMAMHGVDTPIDYLNSHGTSTPVGDVKELAAIREVFGDKSPAISATKAMTGHSLGAAGVQEAIYSLLMLEHGFIAPSINIEELDEQAAGLNIVTETTDRELTTVMSNSFGFGGTNATLVMRKLKD | binds
AccD (enzyme, UniProt P0A9Q5 1-304) MSWIERIKSNITPTRKASIPEGVWTKCDSCGQVLYRAELERNLEVCPKCDHHMRMTARNRLHSLLDEGSLVELGSELEPKDVLKFRDSKKYKDRLASAQKETGEKDALVVMKGTLYGMPVVAAAFEFAFMGGSMGSVVGARFVRAVEQALEDNCPLICFSASGGARMQEALMSLMQMAKTSAALAKMQERGLPYISVLTDPTMGGVSASFAMLGDLNIAEPKALIGFAGPRVIEQTVREKLPPGFQRSEFLIEKGAIDMIVRRPEMRLKLASILAKLMNLPAPNPEAPREGVVVPPVPDQEPEA | binds
FabH (enzyme, UniProt P0A6R0 1-317) MYTKIIGTGSYLPEQVRTNADLEKMVDTSDEWIVTRTGIRERHIAAPNETVSTMGFEAATRAIEMAGIEKDQIGLIVVATTSATHAFPSAACQIQSMLGIKGCPAFDVAAACAGFTYALSVADQYVKSGAVKYALVVGSDVLARTCDPTDRGTIIIFGDGAGAAVLAASEEPGIISTHLHADGSYGELLTLPNADRVNPENSIHLTMAGNEVFKVAVTELAHIVDETLAANNLDRSQLDWLVPHQANLRIISATAKKLGMSMDNVVVTLDRHGNTSAASVPCALDEAVRDGRIKPGQLVLLEAFGGGFTWGSALVRF | binds

Further lines, results first:

binding | Binder
binds | WbbJ (enzyme, UniProt P37750 1-196) MILKLAKRYGLCGFIRLVRDVLLTRVFYRNCRIIRFPCYIRNDGSINFGENFTSGVGLRLDAFGRGVIFFSDNVQVNDYVHIASIESVTIGRDTLIASKVFITDHNHGSFKHSDPMSSPNIPPDMRTLESSAVVIGQRVWLGENVTVLPGTIIGNGVVVGANSVVRGSIPENTVIAGVPAKIIKKYNHETKLWEKA
binds | PssA (phosphatidylserine synthase) (enzyme, UniProt P23830 1-451) MLSKFKRNKHQQHLAQLPKISQSVDDVDFFYAPADFRETLLEKIASAKQRICIVALYLEQDDGGKGILNALYEAKRQRPELDVRVLVDWHRAQRGRIGAAASNTNADWYCRMAQENPGVDVPVYGVPINTREALGVLHFKGFIIDDSVLYSGASLNDVYLHQHDKYRYDRYHLIRNRKMSDIMFEWVTQNIMNGRGVNRLDDVNRPKSPEIKNDIRLFRQELRDAAYHFQGDADNDQLSVTPLVGLGKSSLLNKTIFHLMPCAEQKLTICTPYFNLPAILVRNIIQLLREGKKVEIIVGDKTANDFYIPEDEPFKIIGALPYLYEINLRRFLSRLQYYVNTDQLVVRLWKDDDNTYHLKGMWVDDKWMLITGNNLNPRAWRLDLENAILIHDPQLELAPQREKELELIREHTTIVKHYRDLQSIADYPVKVRKLIRRLRRIRIDRLISRIL
binds | LptC (protein, UniProt P0ADV9 1-191) MSKARRWVIIVLSLAVLVMIGINMAEKDDTAQVVVNNNDPTYKSEHTDTLVYNPEGALSYRLIAQHVEYYSDQAVSWFTQPVLTTFDKDKIPTWSVKADKAKLTNDRMLYLYGHVEVNALVPDSQLRRITTDNAQINLVTQDVTSEDLVTLYGTTFNSSGLKMRGNLRSKNAELIEKVRTSYEIQNKQTQP
